Laboratory results: US20250073210A1, “Use of Ergothioneine for Enhancing Glutathione Level” (priority 2022, published 2025)
“And” between values parts separate entries of the source, which are not always exact repeats. Equal entries are not always repeated.

Key:
Assay type in all cases: cell-based, human
[1] = test system: TXNRD1; test: RT-qPCR PCR array mQPA-8-Nrf2, TXNRD1 expression in NHEK
Description: (§1) In the present study, the effects of compound L-Ergothioneine were investigated in normal human epidermal keratinocytes (NHEK) under basal or UV-irradiated conditions. More specifically, the effects of this compound were evaluated using RT-qPCR technology. Extracted mRNA was analyzed using a PCR array (“mQPA-8-Nrf2”) for the analysis of 8 target genes (including 1 housekeeping gene) selected for their role in Nrf2 pathway. Prior to this assay, a preliminary cytotoxicity assay was performed on compound L-Ergothioneine and Resveratrol (reference in basal condition) using a standard WST-8 reduction assay, in order to determine the concentrations to be tested in this study.
(§2) Cell type: Normal human epidermal keratinocytes (NHEK) used at the 3rd passage. Culture conditions: 37° C., 5% CO2. Culture medium: Keratinocyte-SFM optimized for the assay, supplemented with Epidermal Growth Factor Pituitary extract. Assay medium: Keratinocyte-SFM optimized for the assay. Test compound: L-Ergothioneine in ultrapure water. Test concentrations: 0.5, 3 and 30 μM. Reference: Resveratrol. Test concentration: 20 μM.
(§3) Keratinocytes were seeded in 24-well plates and cultured for 24 hours in culture medium and in assay medium for a further 24 hours. The medium was then replaced by assay medium containing or not (control) the compound or Resveratrol and cells were pre-incubated for 24 hours.
(§4) After pre-incubation, the medium was then removed and replaced by a PBS solution. For basal conditions, the plate was kept in the dark during the irradiation time. For irradiated conditions, the cells were irradiated with UVB−275 mJ/cm^2 (+UVA−2 J/cm^2) using a SOL500 Sun Simulator equipped with an H2 filter (Dr. Hönle, AG). After irradiation time, the treatments were renewed, and the cells were incubated for 24 hours. All experimental conditions were performed in n=3. At the end of incubation, the cells were washed in phosphate buffered saline (PBS) solution and immediately frozen at −80° C.
(§5) The expression of markers was analyzed using RT-qPCR method on total RNA extracted from the cell monolayers of each experimental condition (before RNA extraction, the replicates of the same experimental condition were pooled). The analysis of transcripts was performed in n=2 using a PCR array dedicated to research and adapted to ‘screening’ format and targeting 8 genes selected for their role in Nrf2 pathway.
(§6) Total RNA was extracted from each sample using TriPure Isolation Reagent® according to the supplier's instructions. The amount and quality of RNA were evaluated using capillary electrophoresis (Bioanalyzer 2100, Agilent technologies). The complementary DNA (cDNA) was synthetized by reverse transcription of total RNA in presence of oligo(dT) and «Transcriptor Reverse Transcriptase» (Roche Molecular System Inc.). The cDNA quantities were then adjusted before PCR.
(§7) The PCR (Polymerase Chain Reaction) were performed using the «LightCycler®» system (Roche Molecular System Inc.) according to the supplier's instructions. The reaction mix (10 μl final) was prepared as follows: 2.5 μl of cDNA; primers (forward and reverse); reagent mix (Roche) containing taq DNA polymerase, SYBR Green I and MgCl2.
(§8) The incorporation of fluorescence in amplified DNA was continuously measured during the PCR cycles. […] The value selected for RE calculations is the “output point” (Ct) of the fluorescence curve. For a considered marker, the highest is the cycle number; the lowest is the mRNA quantity. The RE value was calculated with the formula: (½^number of cycles)×10^6. The PCR array used in the present study included 1 reference gene (RPS28).

[2] = test system: GCLC; test: RT-qPCR PCR array mQPA-8-Nrf2, GCLC expression in NHEK
Description: as §1, §2, §3, §4, §5, §6, §7, §8

[3] = test system: TXN; test: RT-qPCR PCR array mQPA-8-Nrf2, TXN expression in NHEK
Description: as §1, §2, §3, §4, §5, §6, §7, §8

[4] = test system: HMOX1; test: RT-qPCR PCR array mQPA-8-Nrf2, HMOX1 expression in NHEK
Description: as §1, §2, §3, §4, §5, §6, §7, §8

[5] = test system: MT1G; test: RT-qPCR PCR array mQPA-8-Nrf2, MT1G expression in NHEK
Description: as §1, §2, §3, §4, §5, §6, §7, §8

[6] = test system: GCLM; test: RT-qPCR PCR array mQPA-8-Nrf2, GCLM expression in NHEK
Description: as §1, §2, §3, §4, §5, §6, §7, §8

[7] = test system: NQO1; test: RT-qPCR PCR array mQPA-8-Nrf2, NQO1 expression in NHEK
Description: as §1, §2, §3, §4, §5, §6, §7, §8

[8] = test system: RPS28; test: RT-qPCR PCR array mQPA-8-Nrf2, housekeeping gene RPS28; settings: basal conditions, 20 μM
Description: In the present study, the effects of compound L-Ergothioneine were investigated in normal human epidermal keratinocytes (NHEK) under basal or UV-irradiated conditions. More specifically, the effects of this compound were evaluated using RT-qPCR technology. Extracted mRNA was analyzed using a PCR array (“mQPA-8-Nrf2”) for the analysis of 8 target genes (including 1 housekeeping gene) selected for their role in Nrf2 pathway. Prior to this assay, a preliminary cytotoxicity assay was performed on compound L-Ergothioneine and Resveratrol (reference in basal condition) using a standard WST-8 reduction assay, in order to determine the concentrations to be tested in this study. […]
The expression of markers was analyzed using RT-qPCR method on total RNA extracted from the cell monolayers of each experimental condition (before RNA extraction, the replicates of the same experimental condition were pooled). […]
Total RNA was extracted from each sample using TriPure Isolation Reagent® according to the supplier's instructions. The amount and quality of RNA were evaluated using capillary electrophoresis (Bioanalyzer 2100, Agilent technologies). […] The cDNA quantities were then adjusted before PCR. […]
The incorporation of fluorescence in amplified DNA was continuously measured during the PCR cycles. […] The value selected for RE calculations is the “output point” (Ct) of the fluorescence curve. […]

[9] = UV-irradiated (UVB-275 mJ/cm^2 +UVA-2 J/cm^2), 0.5 μM
[10] = UV-irradiated (UVB-275 mJ/cm^2 +UVA-2 J/cm^2), 3 μM
[11] = UV-irradiated (UVB-275 mJ/cm^2 +UVA-2 J/cm^2), 30 μM

Structure (SMILES): C[N+](C)(C)[C@@H](Cc1c[nH]c(=S)[nH]1)C(=O)[O-] [L-Ergothioneine, (2S)-3-(2-thioxo-2,3-dihydro-1H-imidazol-4-yl)-2-(trimethylammonio)-propanoate]
- TXNRD1 Cycles [1, 9]: 24.14 and 23.99
- TXNRD1 Cycles [1, 10]: 24.15 and 24.13
- TXNRD1 Cycles [1, 11]: 24.07 and 24.16
- TXNRD1 Cycles ([1]; basal conditions, 0.5 μM): 23.76 and 23.63
- TXNRD1 Cycles ([1]; basal conditions, 3 μM): 23.65 and 23.67
- TXNRD1 Cycles ([1]; basal conditions, 30 μM): 23.52
- GCLC Cycles [2, 9]: 26.75 and 26.78
- GCLC Cycles [2, 10]: 26.58 and 26.55
- GCLC Cycles [2, 11]: 26.30 and 26.36
- GCLC Cycles ([2]; basal conditions, 0.5 μM): 25.81 and 25.66
- GCLC Cycles ([2]; basal conditions, 3 μM): 25.50 and 25.61
- GCLC Cycles ([2]; basal conditions, 30 μM): 25.44 and 25.28
- TXN Cycles [3, 9]: 19.56 and 19.58
- TXN Cycles [3, 10]: 19.45 and 19.48
- TXN Cycles [3, 11]: 19.65 and 19.78
- TXN Cycles ([3]; basal conditions, 0.5 μM): 19.39 and 19.61
- TXN Cycles ([3]; basal conditions, 3 μM): 19.34 and 19.60
- TXN Cycles ([3]; basal conditions, 30 μM): 19.27 and 19.29
- HMOX1 Cycles [4, 9]: 25.94 and 26.05
- HMOX1 Cycles [4, 10]: 26.05 and 25.90
- HMOX1 Cycles [4, 11]: 25.92 and 25.85
- HMOX1 Cycles ([4]; basal conditions, 0.5 μM): 28.50 and 28.54
- HMOX1 Cycles ([4]; basal conditions, 3 μM): 28.54 and 28.19
- HMOX1 Cycles ([4]; basal conditions, 30 μM): 28.24 and 28.33
- MT1G Cycles [5, 9]: 27.67 and 27.74
- MT1G Cycles [5, 10]: 27.52 and 27.57
- MT1G Cycles [5, 11]: 27.72
- MT1G Cycles ([5]; basal conditions, 0.5 μM): 25.85 and 25.98
- MT1G Cycles ([5]; basal conditions, 3 μM): 26.08 and 25.95
- MT1G Cycles ([5]; basal conditions, 30 μM): 25.86 and 25.82
- GCLM Cycles [6, 9]: 26.49 and 26.24
- GCLM Cycles [6, 10]: 26.23 and 26.24
- GCLM Cycles [6, 11]: 26.47 and 26.57
- GCLM Cycles ([6]; basal conditions, 0.5 μM): 24.77 and 24.78
- GCLM Cycles ([6]; basal conditions, 3 μM): 24.66 and 24.64
- GCLM Cycles ([6]; basal conditions, 30 μM): 24.65 and 24.70
- NQO1 Cycles [7, 9]: 31.98 and 31.69
- NQO1 Cycles [7, 10]: 31.63 and 31.72
- NQO1 Cycles [7, 11]: 31.24 and 31.47
- NQO1 Cycles ([7]; basal conditions, 0.5 μM): 31.95 and 32.00
- NQO1 Cycles ([7]; basal conditions, 3 μM): 31.86 and 31.81
- NQO1 Cycles ([7]; basal conditions, 30 μM): 31.55 and 31.73

Structure (SMILES): Oc1ccc(C=Cc2cc(O)cc(O)c2)cc1 [Resveratrol]
- RPS28 Cycles [8]: 20.91 and 20.69
- TXNRD1 Cycles ([1]; basal conditions, 20 μM): 21.35 and 21.22
- GCLC Cycles ([2]; basal conditions, 20 μM): 23.73 and 23.72
- TXN Cycles ([3]; basal conditions, 20 μM): 17.80 and 17.83
- HMOX1 Cycles ([4]; basal conditions, 20 μM): 26.35 and 26.53
- MT1G Cycles ([5]; basal conditions, 20 μM): 26.77 and 26.71
- GCLM Cycles ([6]; basal conditions, 20 μM): 22.14 and 22.11
- NQO1 Cycles ([7]; basal conditions, 20 μM): 28.76 and 28.74
